# About 13,000 (3.2%) of roughly 400,000 compounds were called active. The inconclusive results got no clear call from the source; some entries with a clear call stand among them for comparison. Calls follow the shape of the dose curve; as a rule, active = well fitted cell-killing curve with a large enough effect; inconclusive = small, poorly fitted or top-dose-only effect, or effect the other way; inactive = flat fitted curve, though single readings scatter. Potencies beside an inconclusive call are fits to weak or partial responses and may not hold up.
# Assay: qHTS assay for MDR1-selective chemotherapeutics: Primary screen using the drug-selected MDR subline cells KB-V1; also: nearly all actives have a fitted effect of over 60% in size
# Conditions: KB-V1 MDR cells viability, CellTiter-Glo, 72 h; activity change, negative = cytotoxicity: at 46.1 µM (top of the series)
# How it was run: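 Cytotoxicity via CellTiter-Glo luminescence after 72 h compound exposure at 37 degrees C. Cells: drug-selected KB-V1 line, DMEM phenol-red free plus 10% FBS. Compounds tested at multiple concentrations; normalized data fitted to concentration-effect curves.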
# % is scaled to controls: 0 for no effect and ±100 for the full control effect; potency is read from the fitted curve at half-maximal effect.
SMILES,"activity change, negative = cytotoxicity",Potency
O=C(NNC(=O)c1cc(Cl)ccc1O)c1cccc(S(=O)(=O)N2CCOCC2)c1,inactive: 2.54%,–
COc1cc(-c2nn3c(-c4ccccc4)nnc3s2)cc(OC)c1OC,–,"inconclusive: 5.8 µM [cytotoxic, full curve, poor fit]"
O=C1c2[nH]nc(-c3ccccc3O)c2C(c2ccc(F)cc2)N1Cc1ccco1 (stereo not drawn),–,active: 6.51 µM
CCOC(=O)C1(Cc2ccc(OC)cc2)CCN(C(=O)c2sc(C)nc2C)CC1,–,"inconclusive: 20.6 µM [cytotoxic, single point]"
COc1ccc(NC(=S)NC(=O)c2ccccc2Cl)cc1,inactive: 10.5%,–
CC1=C(C(=O)OCc2ccccc2)C(c2ccc(Cl)cc2)NC(=O)N1CCCCCC(=O)O (stereo not drawn),–,"inconclusive: 29.1 µM [cytotoxic, single point]"
CCOC(=O)N1CCN(S(=O)(=O)c2cc(-c3nn4c(C)nnc4c4ccccc34)ccc2C)CC1,–,"inconclusive: 29.1 µM [cytotoxic, single point]"
C[C@@H]1ON(C)[C@H]2C[C@H]3c4[nH]c5ccc(-c6ccc7c(c6)OCO7)cc5c4CCN3C[C@@H]12,–,"inconclusive: 20.6 µM [cytotoxic, single point]"
O=C1CC(N2CCN(c3ccc(O)cc3)CC2)C(=O)N1c1ccc2c(c1)OCO2 (stereo not drawn),–,"inconclusive: 23.1 µM [rising, single point]"
O=C(/C=C/c1cccc([N+](=O)[O-])c1)Nc1ccc(Cl)cn1,–,"inconclusive: 16.4 µM [cytotoxic, single point]"
O=C(CSC1=NNC(c2ccccn2)S1)Nc1ccc(C(F)(F)F)cc1 (stereo not drawn),inactive: -3.07%,–
CN(CCc1ccccc1)C(=O)c1cccc(NC(=O)Cc2cccc(NC(=O)C3CCCN(C(=O)C4CCCC4)C3)c2)c1 (stereo not drawn),inactive: 0.0002%,–
COc1cccc(-c2nc(-c3ccc(NC(=O)Cc4ccccc4OC)cc3)no2)c1,–,"inconclusive: 32.6 µM [cytotoxic, single point]"
Cc1cccc(N2CCN(C(=O)c3ccc(Cl)c(S(=O)(=O)N4CCc5ccccc5C4)c3)CC2)c1C,–,"inconclusive: 8.2 µM [cytotoxic, partial curve]"
CC(C)CC(=O)Nc1ccc(-c2cn3ccsc3n2)cc1,–,"inconclusive: 32.6 µM [cytotoxic, partial curve, poor fit]"
Cc1cc(OCc2nc3ccccc3s2)ccc1N,–,"inconclusive: 3.26 µM [cytotoxic, partial curve, poor fit]"
O=C(CCCc1ccccc1)Nc1nncs1,–,active: 9.2 µM
CC(CCN1CCC(CN2C(=O)C(=O)NC[C@@H]2Cc2ccccc2)CC1)c1ccccc1 (stereo partly drawn),–,"inconclusive: 6.51 µM [rising, partial curve, poor fit]"
Cc1ccc(NS(=O)(=O)c2ccc(-n3cccn3)cc2)cc1F,–,"inconclusive: 16.4 µM [cytotoxic, single point]"
Cn1c(=O)c2[nH]c(NN=Cc3cccc(Br)c3)nc2n(C)c1=O,–,"inconclusive: 29.1 µM [cytotoxic, single point]"
O=C(CN(c1ccccc1Cl)S(=O)(=O)c1ccccc1)NCc1ccccc1,–,"inconclusive: 8.2 µM [cytotoxic, partial curve, poor fit]"
CS(=O)(=O)N(CC(=O)N1CCN(c2ccccc2)CC1)c1ccc(Cl)c(C(F)(F)F)c1,–,"inconclusive: 13 µM [cytotoxic, partial curve]"
Cc1nc2c(nc1C)C(=O)c1ccccc1C2=O,–,active: 9.2 µM

# An excerpt of these results, as tab-separated lines.
SMILES	activity change, negative = cytotoxicity	Potency
CC(C)CC(=O)Nc1ccc(-c2cn3ccsc3n2)cc1	–	inconclusive: 32.6 µM [cytotoxic, partial curve, poor fit]
Cc1cc(OCc2nc3ccccc3s2)ccc1N	–	inconclusive: 3.26 µM [cytotoxic, partial curve, poor fit]
O=C(CCCc1ccccc1)Nc1nncs1	–	active: 9.2 µM
CC(CCN1CCC(CN2C(=O)C(=O)NC[C@@H]2Cc2ccccc2)CC1)c1ccccc1 (stereo partly drawn)	–	inconclusive: 6.51 µM [rising, partial curve, poor fit]
Cc1ccc(NS(=O)(=O)c2ccc(-n3cccn3)cc2)cc1F	–	inconclusive: 16.4 µM [cytotoxic, single point]
Cn1c(=O)c2[nH]c(NN=Cc3cccc(Br)c3)nc2n(C)c1=O	–	inconclusive: 29.1 µM [cytotoxic, single point]

# More records follow:

SMILES,"activity change, negative = cytotoxicity",Potency
COc1cc(/C=N/NC(N)=S)cc(Br)c1OCc1ccccc1F,–,active: 18.4 µM
COc1ccc(/C(C)=N/N=C(N)N)c(OC)c1,inactive: 28.8%,–
CCOCCCNC(=O)C1CCN(S(=O)(=O)c2ccc3nc4c(c(C(=O)O)c3c2)CCCCC4)CC1,–,"inconclusive: 29.1 µM [rising, single point]"
COc1ccc2sc(-c3ccc(SC)cc3)c(C#CCO)c2c1,–,"inconclusive: 14.6 µM [cytotoxic, single point]"
COc1ccc(OC)c(CNC(=O)C2COc3ccccc3C2)c1 (stereo not drawn),inactive: -1.25%,–
CC(=Nc1ccccc1)C1=C(O)C(Cc2ccc(F)cc2)NC1=O (stereo not drawn),–,"inconclusive: 5.17 µM [cytotoxic, full curve, poor fit]"
CCc1nc2ccc(C(=O)Nc3cccc(OCC(=O)N(C)C)c3)cn2c1N(C)Cc1cc2ccccc2s1,–,"inconclusive: 18.4 µM [cytotoxic, single point]"
Cc1cc(C)cc(NC(=O)CN2C(=O)c3ccccc3C2=O)c1,–,"inconclusive: 7.31 µM [rising, partial curve]"
CN(C)c1nc(N(C)C)n(Cc2c(Cl)cccc2Cl)n1,inactive: -11.9%,–
COc1ccc(Br)cc1CNC(=O)c1ccc2c(c1)nc1n2CCCCC1,inactive: 6.56%,–
CCOCCCNC(=O)c1ccc(CS(=O)(=O)Cc2ccc(C)cc2)o1,–,"inconclusive: 20.6 µM [cytotoxic, single point]"
Cc1ccc2nc(SC(C(=O)c3ccccc3)c3ccccc3)nc(C)c2c1 (stereo not drawn),–,"inconclusive: 32.6 µM [cytotoxic, single point]"
O=C(/C=C/c1ccc([N+](=O)[O-])s1)N1CCCC1,–,"inconclusive: 29.1 µM [cytotoxic, single point]"
COc1ccc(C(=O)CCN(C)C)c2ccccc12,inactive: 22%,–
Cc1cc(C)c2nc(NC(=O)[C@@H](NC(=O)c3cccc(S(=O)(=O)N4CCOCC4)c3)C(C)C)sc2c1,–,"inconclusive: 7.31 µM [cytotoxic, partial curve]"
c1cncc(-c2nc(NCC3CCCO3)c3ccccc3n2)c1 (stereo not drawn),–,"inconclusive: 29.1 µM [cytotoxic, single point]"
COc1ccc(NS(=O)(=O)c2ccc(NS(=O)(=O)c3ccc4c(c3)OCCO4)cc2)cc1,inactive: 0%,–
CC1CC(N(C(=O)c2ccccc2Cl)c2ccccc2)c2ccccc2N1 (stereo not drawn),–,"inconclusive: 23.1 µM [cytotoxic, single point]"
Cc1ccc(S(=O)(=O)c2c(N)n(CCC(C)C)c3nc4ccccc4nc23)cc1,–,active: 13 µM
COC(=O)c1ccccc1NC(=O)COc1ccccc1,–,"inconclusive: 29.1 µM [cytotoxic, single point]"
CC1=C(C#N)C(/C=N/OCc2ccc(Cl)cc2)CC(=O)N1 (stereo not drawn),–,"inconclusive: 29.1 µM [cytotoxic, single point]"
Cc1cc2[nH]c3c4ccccc4nc(C)c3c2cc1C,–,"inconclusive: 18.4 µM [cytotoxic, single point]"
COc1ccc(C(=O)Nc2ccc(C(=O)NCC3CCCO3)cc2)c(OC)c1OC (stereo not drawn),–,"inconclusive: 8.2 µM [cytotoxic, partial curve, poor fit]"

SMILES,"activity change, negative = cytotoxicity",Potency
Cc1cc(C)cc(N2CCn3c2nc2c3c(=O)n(CCc3ccccc3)c(=O)n2C)c1,inactive: 0.931%,–
CCN(c1ccccc1)S(=O)(=O)c1ccc2c(c1)C(C)(C)C(=O)N2C,inactive: 0%,–
CN(CCC#N)c1ccc(C=C(C#N)c2ccc(Br)cc2)cc1,–,active: 16.4 µM
OCc1ncc(-c2ccccc2)s1,–,"inconclusive: 23.1 µM [cytotoxic, partial curve, poor fit]"
COc1ccc2cc(C(=O)C3CCCN(C(=O)Cc4c(C)noc4C)C3)ccc2c1 (stereo not drawn),–,"inconclusive: 16.4 µM [cytotoxic, partial curve, poor fit]"
Cc1ccc(NCC(=O)N/N=C\c2ccc([N+](=O)[O-])o2)cc1,–,"inconclusive: 29.1 µM [cytotoxic, single point]"
Cc1cccc(N2CCN(C(=O)c3ccoc3C)CC2)c1C,–,"inconclusive: 23.1 µM [cytotoxic, single point]"
Cc1cc(C)nc(SCC(CSc2nc(C)cc(C)n2)C(=O)O)n1,–,"inconclusive: 14.6 µM [rising, partial curve, poor fit]"
O=C1c2ccccc2NC(c2ccccc2)N1Cc1ccco1 (stereo not drawn),–,"inconclusive: 29.1 µM [cytotoxic, single point]"
CCOC(=O)C1=C(C)NC2=C(C(=O)CC(C)(C)C2)C1c1ccsc1 (stereo not drawn),–,"inconclusive: 10.3 µM [cytotoxic, partial curve]"
O=C(COc1ccc(Cl)cc1)N1CCN(c2cccc(C(F)(F)F)c2)CC1,–,"inconclusive: 29.1 µM [cytotoxic, single point]"
Cc1cccc(CSCC(=O)N2CCN(S(=O)(=O)c3ccccc3C#N)CC2)c1,–,"inconclusive: 16.4 µM [cytotoxic, single point]"
O=C(Nc1nc(-c2ccccn2)cs1)C1CCCC1,–,"inconclusive: 6.51 µM [cytotoxic, partial curve]"
COc1cc(OC)cc(N(C(=O)C2COc3ccccc3O2)C(C(=O)NC2CCCCC2)c2ccc(O)cc2)c1 (stereo not drawn),–,"inconclusive: 23.1 µM [cytotoxic, single point]"
O=C(NCc1ccccc1)C(c1ccccc1)N(C(=O)c1csnn1)C1CCCC1 (stereo not drawn),–,"inconclusive: 2.31 µM [cytotoxic, full curve]"
COc1ccc(/C=N/OC(=O)Nc2ccc(Cl)cc2)c(OC)c1,inactive: 18.1%,–
O=C(c1ccco1)N1CCN(C(=O)c2ccccc2OCc2ccccc2)CC1,–,"inconclusive: 18.4 µM [cytotoxic, single point]"
COc1ccc(C(=O)NC2CCCN(Cc3ccc(Cl)cc3)C2)c(OC)c1 (stereo not drawn),–,"inconclusive: 29.1 µM [cytotoxic, single point]"
CCN1CNC(=S)N(c2ccccc2OC)C1,inconclusive: 23.3%,–
CSc1nnc(-c2sc3cc(C(F)(F)F)cnc3c2-c2ccccn2)n1C,–,active: 18.4 µM
Cc1ccc(S(=O)(=O)c2nc(S(C)(=O)=O)sc2N2CCCCCC2)cc1,–,active: 6.51 µM
CCN(CC)C(=O)CSc1nnc(-c2cnccn2)n1-c1ccc(C)cc1,–,"inconclusive: 14.6 µM [cytotoxic, partial curve]"

# — PubChem BioAssay AID1347076 (National Center for Advancing Translational Sciences (NCATS), 2019)
